Data as given in PubChem BioAssay AID504784 (Drosophila RNAi Screening Center, 2011).
Screen: 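Genome-wide knock-down for genes giving too much or too little stored lipid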 (primary screen). System: Drosophila Kc167 embryonic cells. Reagent: long dsRNA against Drosophila genes, about 250 ng dsRNA per well. Timing: 4 days. Challenge: cells fed 400 µM oleic acid bound to BSA. Measurement: 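Microscope images give a droplet-to-nucleus area ratio, taken as log and converted to a screen-wide B-score; higher values mean greater lipid storage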. Reading the numbers: droplet/nuclear area B-score: higher = more stored lipid (overstorage).
The deposit covers about 17,000 reagents; shown is a random part of those that have a named target and a result. 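Each column is one replicate's B-score; the combined score over replicates was not deposited, so single values may mislead.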 Further read-outs or replicates are left out here. No sequences are given here.

With SF2 [DRSC16845], what was measured?
droplet/nuclear area B-score, replicate 1: 1.56

With CG10428 [DRSC02054], how do the results read?
droplet/nuclear area B-score, replicate 1: -0.702

Which result is listed for CG7148 [DRSC11802]?
droplet/nuclear area B-score, replicate 1: 1.17

What is on record for CG12842 (retired record) [DRSC06188]?
droplet/nuclear area B-score, replicate 1: 0.0138

How did the screen score Pyroxd1 [DRSC02098]?
droplet/nuclear area B-score, replicate 1: 0.389

With hry [DRSC11353], what does the deposit list?
droplet/nuclear area B-score, replicate 1: 2.26

For hry [DRSC23249], what does the deposit list?
droplet/nuclear area B-score, replicate 1: 0.556

What did the screen give for Mur2B [DRSC18545]?
droplet/nuclear area B-score, replicate 1: 1.9

What is on record for Mur2B [DRSC18546]?
droplet/nuclear area B-score, replicate 1: -0.0975

What did the screen give for CG18324 [DRSC06721]?
droplet/nuclear area B-score, replicate 1: -0.735

What is on record for CysRS [DRSC05948]?
droplet/nuclear area B-score, replicate 1: 0.621

What is on record for CG4271 [DRSC00649]?
droplet/nuclear area B-score, replicate 1: 0.632

With Mybbp1A [DRSC18788], how do the results read?
droplet/nuclear area B-score, replicate 1: 0.768

With CG3927 [DRSC04433], what was measured?
droplet/nuclear area B-score, replicate 1: 0.991

How did the screen score CG3927 [DRSC22813]?
droplet/nuclear area B-score, replicate 1: 0.76

For boi [DRSC18425], what does the deposit list?
droplet/nuclear area B-score, replicate 1: -0.495

With boi [DRSC18598], how do the results read?
droplet/nuclear area B-score, replicate 1: 0.794

How did the screen score CG7685 [DRSC16285]?
droplet/nuclear area B-score, replicate 1: -0.0242

For Gpo1 [DRSC07128], what does the deposit list?
droplet/nuclear area B-score, replicate 1: 1.18

What did the screen give for ssp3 [DRSC02669]?
droplet/nuclear area B-score, replicate 1: -1.02

Which result is listed for ssp3 [DRSC02670]?
droplet/nuclear area B-score, replicate 1: -0.553

For Mitf [DRSC17212], how do the results read?
droplet/nuclear area B-score, replicate 1: -0.175

Which result is listed for Mitf [DRSC21056]?
droplet/nuclear area B-score, replicate 1: 1.16

For unc-119 [DRSC18846], how do the results read?
droplet/nuclear area B-score, replicate 1: 0.388

How did the screen score Gr32a [DRSC02400]?
droplet/nuclear area B-score, replicate 1: -6.18

How did the screen score CG8814 [DRSC00707]?
droplet/nuclear area B-score, replicate 1: 1.27

For CG5770 [DRSC06954], what does the deposit list?
droplet/nuclear area B-score, replicate 1: 2.81

Taken from above.
ssp3 [DRSC02670], droplet/nuclear area B-score, replicate 1 = -0.553
Entry for Mur2B [DRSC18546] in “droplet/nuclear area B-score, replicate 1”: -0.0975
Result for unc-119 [DRSC18846] under “droplet/nuclear area B-score, replicate 1”: 0.388
